{"sequences": {"note": "Amino acid sequences for entries named in this document (tags omitted).", "UniProt O15054": "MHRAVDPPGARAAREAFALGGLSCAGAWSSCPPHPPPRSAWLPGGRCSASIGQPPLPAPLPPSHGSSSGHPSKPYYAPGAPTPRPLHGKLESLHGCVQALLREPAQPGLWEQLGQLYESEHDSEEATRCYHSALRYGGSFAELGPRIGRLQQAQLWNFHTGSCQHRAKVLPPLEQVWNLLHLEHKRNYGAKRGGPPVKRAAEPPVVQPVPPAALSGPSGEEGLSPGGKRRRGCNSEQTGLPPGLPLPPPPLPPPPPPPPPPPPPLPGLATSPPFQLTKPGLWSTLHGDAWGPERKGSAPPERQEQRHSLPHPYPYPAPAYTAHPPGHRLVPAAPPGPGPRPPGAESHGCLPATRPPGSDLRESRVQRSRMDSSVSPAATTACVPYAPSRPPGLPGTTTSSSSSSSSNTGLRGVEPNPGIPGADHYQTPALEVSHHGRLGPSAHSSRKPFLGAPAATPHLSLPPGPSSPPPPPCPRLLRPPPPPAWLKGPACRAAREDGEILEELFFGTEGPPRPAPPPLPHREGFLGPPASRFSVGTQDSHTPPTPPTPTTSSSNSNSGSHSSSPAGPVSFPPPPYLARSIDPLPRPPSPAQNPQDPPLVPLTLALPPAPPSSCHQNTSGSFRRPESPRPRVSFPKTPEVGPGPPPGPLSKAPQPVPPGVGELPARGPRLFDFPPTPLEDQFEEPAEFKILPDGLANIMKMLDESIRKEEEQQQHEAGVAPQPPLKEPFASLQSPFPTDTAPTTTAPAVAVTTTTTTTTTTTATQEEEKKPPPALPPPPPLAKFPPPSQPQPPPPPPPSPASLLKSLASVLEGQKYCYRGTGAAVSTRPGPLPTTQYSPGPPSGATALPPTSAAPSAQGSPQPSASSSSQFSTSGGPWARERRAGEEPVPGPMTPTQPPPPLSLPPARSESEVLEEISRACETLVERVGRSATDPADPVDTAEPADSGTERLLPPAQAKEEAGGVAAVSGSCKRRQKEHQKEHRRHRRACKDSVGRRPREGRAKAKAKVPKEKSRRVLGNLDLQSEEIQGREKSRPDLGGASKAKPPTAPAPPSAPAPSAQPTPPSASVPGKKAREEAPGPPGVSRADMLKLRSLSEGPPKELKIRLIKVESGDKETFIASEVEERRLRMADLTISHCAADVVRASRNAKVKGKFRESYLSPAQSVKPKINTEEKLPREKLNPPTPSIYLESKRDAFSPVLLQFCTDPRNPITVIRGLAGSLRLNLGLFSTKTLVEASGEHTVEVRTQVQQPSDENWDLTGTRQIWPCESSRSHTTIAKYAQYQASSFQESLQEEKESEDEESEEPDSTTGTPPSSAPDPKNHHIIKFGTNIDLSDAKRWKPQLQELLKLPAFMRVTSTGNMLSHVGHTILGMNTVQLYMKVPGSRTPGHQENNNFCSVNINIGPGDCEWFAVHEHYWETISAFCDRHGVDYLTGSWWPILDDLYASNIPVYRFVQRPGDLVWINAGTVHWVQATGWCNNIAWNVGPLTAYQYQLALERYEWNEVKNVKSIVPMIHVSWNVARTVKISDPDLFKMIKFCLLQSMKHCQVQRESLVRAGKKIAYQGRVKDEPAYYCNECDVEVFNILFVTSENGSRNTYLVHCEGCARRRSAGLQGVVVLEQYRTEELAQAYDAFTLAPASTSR", "UniProt Q9NR30": "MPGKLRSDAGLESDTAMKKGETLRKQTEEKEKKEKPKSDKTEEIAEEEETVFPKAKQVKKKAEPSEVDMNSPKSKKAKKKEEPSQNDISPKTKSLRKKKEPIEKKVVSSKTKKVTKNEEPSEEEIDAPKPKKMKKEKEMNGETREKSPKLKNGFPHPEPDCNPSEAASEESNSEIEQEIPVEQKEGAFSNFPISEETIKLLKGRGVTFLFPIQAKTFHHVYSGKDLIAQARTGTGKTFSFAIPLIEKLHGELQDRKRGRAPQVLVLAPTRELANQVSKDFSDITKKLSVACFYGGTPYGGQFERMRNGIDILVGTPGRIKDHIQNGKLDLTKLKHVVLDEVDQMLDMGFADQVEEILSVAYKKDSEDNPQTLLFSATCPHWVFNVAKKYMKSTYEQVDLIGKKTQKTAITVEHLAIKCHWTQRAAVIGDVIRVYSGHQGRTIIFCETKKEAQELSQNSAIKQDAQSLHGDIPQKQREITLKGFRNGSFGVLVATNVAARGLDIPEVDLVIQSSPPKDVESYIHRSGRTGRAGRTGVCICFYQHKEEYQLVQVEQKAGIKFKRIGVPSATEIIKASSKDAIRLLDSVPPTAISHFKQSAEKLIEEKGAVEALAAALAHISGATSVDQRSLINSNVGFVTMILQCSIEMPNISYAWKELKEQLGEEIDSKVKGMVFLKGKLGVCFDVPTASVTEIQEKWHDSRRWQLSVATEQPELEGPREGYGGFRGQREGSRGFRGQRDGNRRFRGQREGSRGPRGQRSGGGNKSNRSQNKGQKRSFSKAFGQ"}, "source": "paper PMC6895255", "target": "HA-epitope tagged JMJD3 (UniProt O15054)", "test": "affinity purification with mass spectrometry; anti-HA antibody on magnetic beads, from 50 million HEK 293T cells transfected with HA-JMJD3 for 24 h, basal or LPS 100 ng/ml for 6 h; TNGT buffer (150 mM NaCl, 50 mM Tris-HCl pH 7.4, 1% glycerol, 0.1% Triton X100), overnight at 4°C; LC-MS/MS", "note": "No constants are given. Whether binding was seen depends on the method and setting. Binding seen in cells or lysates may run through a third protein. Here binding means that the protein was enriched with, or labelled near, the bait; the list need not be complete.", "data": [{"substance": "DDX21 (from UniProt Q9NR30 1-783) (enzyme)", "values": [{"measurement": "binding", "value": "binds"}]}]}
